Test results from article PMC7738898.
These are yes or no findings as the source states them, for the method shown. In cells and extracts the contact can be indirect. Some entries that bind do so weakly or less than the wild type.

The chains behind the UniProt entries cited, without tags or fusion partners. Where a name states a change or a piece, a line headed by the entry shows the natural chain unless it says otherwise. Residues count along the entry.
UniProt P42224: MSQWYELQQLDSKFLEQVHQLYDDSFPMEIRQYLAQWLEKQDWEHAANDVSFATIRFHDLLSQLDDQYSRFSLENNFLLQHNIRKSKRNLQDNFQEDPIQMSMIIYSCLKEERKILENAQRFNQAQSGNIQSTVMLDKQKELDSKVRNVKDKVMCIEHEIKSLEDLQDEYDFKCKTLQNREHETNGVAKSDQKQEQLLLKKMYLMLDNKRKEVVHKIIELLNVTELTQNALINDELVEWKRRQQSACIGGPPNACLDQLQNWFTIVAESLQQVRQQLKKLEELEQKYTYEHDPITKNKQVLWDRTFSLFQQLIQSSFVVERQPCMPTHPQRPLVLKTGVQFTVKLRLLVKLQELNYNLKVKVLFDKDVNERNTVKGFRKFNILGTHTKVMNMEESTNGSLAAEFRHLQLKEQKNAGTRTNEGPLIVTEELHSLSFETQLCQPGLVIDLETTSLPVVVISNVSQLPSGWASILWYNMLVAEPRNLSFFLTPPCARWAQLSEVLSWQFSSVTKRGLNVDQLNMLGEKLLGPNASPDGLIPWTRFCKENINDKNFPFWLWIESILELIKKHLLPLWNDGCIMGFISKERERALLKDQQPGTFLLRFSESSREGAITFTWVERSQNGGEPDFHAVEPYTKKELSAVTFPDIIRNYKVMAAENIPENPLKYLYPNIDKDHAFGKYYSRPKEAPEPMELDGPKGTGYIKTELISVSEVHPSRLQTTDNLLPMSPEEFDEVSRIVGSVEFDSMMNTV
UniProt O75159: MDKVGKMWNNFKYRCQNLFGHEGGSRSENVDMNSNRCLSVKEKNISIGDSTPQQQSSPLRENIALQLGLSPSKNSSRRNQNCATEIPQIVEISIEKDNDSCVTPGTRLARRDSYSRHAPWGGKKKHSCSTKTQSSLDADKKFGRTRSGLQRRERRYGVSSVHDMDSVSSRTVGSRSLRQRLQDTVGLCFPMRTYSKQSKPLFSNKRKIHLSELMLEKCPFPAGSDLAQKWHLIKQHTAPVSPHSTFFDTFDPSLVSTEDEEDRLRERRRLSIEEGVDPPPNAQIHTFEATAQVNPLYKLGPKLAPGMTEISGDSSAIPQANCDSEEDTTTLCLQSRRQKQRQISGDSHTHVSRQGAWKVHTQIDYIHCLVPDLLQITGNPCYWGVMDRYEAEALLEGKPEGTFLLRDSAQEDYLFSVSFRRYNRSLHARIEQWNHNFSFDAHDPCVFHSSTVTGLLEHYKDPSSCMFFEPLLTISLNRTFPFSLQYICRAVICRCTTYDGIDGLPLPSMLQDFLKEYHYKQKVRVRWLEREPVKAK
UniProt P12109, residues 20-1028: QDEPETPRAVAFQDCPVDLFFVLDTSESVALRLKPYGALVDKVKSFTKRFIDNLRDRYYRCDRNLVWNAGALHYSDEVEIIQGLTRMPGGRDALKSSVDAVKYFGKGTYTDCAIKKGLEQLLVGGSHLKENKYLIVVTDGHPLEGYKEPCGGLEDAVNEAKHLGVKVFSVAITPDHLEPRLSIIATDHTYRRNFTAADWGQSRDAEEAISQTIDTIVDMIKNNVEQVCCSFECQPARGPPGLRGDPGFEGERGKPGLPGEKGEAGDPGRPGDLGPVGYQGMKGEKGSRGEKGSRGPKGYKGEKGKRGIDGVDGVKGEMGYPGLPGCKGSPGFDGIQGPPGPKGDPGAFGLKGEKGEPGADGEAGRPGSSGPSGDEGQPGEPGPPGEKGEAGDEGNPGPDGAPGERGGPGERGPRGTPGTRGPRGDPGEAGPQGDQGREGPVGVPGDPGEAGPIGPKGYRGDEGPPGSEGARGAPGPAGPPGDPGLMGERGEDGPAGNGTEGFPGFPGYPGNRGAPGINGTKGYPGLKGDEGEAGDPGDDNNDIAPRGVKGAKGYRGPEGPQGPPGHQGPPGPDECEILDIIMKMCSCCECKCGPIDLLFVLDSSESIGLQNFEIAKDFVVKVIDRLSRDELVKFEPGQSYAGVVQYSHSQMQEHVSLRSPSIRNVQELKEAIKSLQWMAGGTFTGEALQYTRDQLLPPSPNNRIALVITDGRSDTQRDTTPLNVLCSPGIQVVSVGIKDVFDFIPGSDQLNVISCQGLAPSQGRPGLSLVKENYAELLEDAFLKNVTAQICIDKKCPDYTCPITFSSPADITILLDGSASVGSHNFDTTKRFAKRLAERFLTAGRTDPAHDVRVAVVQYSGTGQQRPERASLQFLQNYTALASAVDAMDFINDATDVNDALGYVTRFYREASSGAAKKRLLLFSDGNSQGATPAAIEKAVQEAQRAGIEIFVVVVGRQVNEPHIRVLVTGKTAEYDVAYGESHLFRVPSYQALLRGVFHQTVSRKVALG

Columns and labels:
[1] = biological target: endogenous STAT1 (signal transducer and activator of transcription 1) (human (endogenous in U2OS)) (UniProt P42224); assay: co-IP; U2OS cells after COL6A1 transfection; endogenous STAT1 and SOCS5; precipitating antibody not told
[2] = biological target: endogenous SOCS5 (suppressor of cytokine signaling 5) (human (endogenous in U2OS)) (UniProt O75159); assay: as above
GFP-tagged STAT1 (S727A) = GFP-tagged STAT1 (S727A) (UniProt P42224); assay: co-IP; Figure S6C-D; COL6A1 pulled down with wild-type or mutant STAT1; cells and antibodies not shown
GFP-tagged STAT1 (Y701A) = GFP-tagged STAT1 (Y701A) (UniProt P42224); assay: as above
[3] = biological target: GFP-tagged wild type STAT1 (UniProt P42224); assay: as above
[4] = biological target: GFP-tagged wild type STAT1 (UniProt P42224); assay: co-IP; 293T cells with GFP-STAT1 and Flag-COL6A1 (wild type or VWFA domain deletion mutants); cell lysates incubated with antibody-conjugated beads at 4 °C for 2 h, western blot

binding [1]	binding [2]	binding (GFP-tagged STAT1 (S727A))	binding (GFP-tagged STAT1 (Y701A))	binding [3]	binding [4]	Substance
binds	binds	binds	binds	binds		COL6A1 (collagen type VI alpha 1), transfected expression vector (from UniProt P12109 20-1028)
					binds	Flag-COL6A1 wild type (collagen type VI alpha 1) (from UniProt P12109 20-1028)
	binds					endogenous STAT1 (signal transducer and activator of transcription 1) (from UniProt P42224 1-750)
